Laboratory results published in PMC2174970.

Amino acid sequences for entries named in this document (tags omitted). A change or cut given only in a name is not applied to a line headed by its entry.
UniProt Q7Z0C9: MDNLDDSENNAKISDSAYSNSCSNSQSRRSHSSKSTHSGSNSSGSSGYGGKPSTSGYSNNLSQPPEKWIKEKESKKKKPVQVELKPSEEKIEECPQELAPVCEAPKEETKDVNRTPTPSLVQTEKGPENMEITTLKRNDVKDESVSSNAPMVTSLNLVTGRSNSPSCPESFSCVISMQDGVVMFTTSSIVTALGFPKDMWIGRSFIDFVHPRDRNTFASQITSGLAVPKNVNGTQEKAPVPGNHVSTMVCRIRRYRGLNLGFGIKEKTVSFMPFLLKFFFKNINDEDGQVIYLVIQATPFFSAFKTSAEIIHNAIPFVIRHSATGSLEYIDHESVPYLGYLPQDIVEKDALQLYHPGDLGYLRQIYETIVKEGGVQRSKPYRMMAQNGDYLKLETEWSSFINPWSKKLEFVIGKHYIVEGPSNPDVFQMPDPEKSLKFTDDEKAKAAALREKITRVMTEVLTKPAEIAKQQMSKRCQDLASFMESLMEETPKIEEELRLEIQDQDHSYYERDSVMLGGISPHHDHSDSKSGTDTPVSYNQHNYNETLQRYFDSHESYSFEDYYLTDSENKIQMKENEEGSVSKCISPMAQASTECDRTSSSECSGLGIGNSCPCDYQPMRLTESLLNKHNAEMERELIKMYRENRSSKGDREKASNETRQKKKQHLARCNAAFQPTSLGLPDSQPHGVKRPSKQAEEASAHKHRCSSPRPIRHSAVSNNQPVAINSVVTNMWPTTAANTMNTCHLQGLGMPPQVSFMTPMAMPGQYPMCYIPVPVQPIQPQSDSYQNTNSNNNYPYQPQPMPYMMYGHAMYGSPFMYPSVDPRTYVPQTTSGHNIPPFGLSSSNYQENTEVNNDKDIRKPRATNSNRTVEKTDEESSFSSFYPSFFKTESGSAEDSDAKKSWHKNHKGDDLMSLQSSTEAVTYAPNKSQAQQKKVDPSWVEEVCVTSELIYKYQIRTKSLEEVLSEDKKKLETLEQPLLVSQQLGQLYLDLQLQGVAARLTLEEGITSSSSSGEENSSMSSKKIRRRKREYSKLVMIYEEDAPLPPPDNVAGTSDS

T1: monarch CRYPTOCHROME 2 (CRY2) (Danaus plexippus (endogenous in DpN1 cells and monarch brain)) (UniProt Q0QWP3)
T1 sequence: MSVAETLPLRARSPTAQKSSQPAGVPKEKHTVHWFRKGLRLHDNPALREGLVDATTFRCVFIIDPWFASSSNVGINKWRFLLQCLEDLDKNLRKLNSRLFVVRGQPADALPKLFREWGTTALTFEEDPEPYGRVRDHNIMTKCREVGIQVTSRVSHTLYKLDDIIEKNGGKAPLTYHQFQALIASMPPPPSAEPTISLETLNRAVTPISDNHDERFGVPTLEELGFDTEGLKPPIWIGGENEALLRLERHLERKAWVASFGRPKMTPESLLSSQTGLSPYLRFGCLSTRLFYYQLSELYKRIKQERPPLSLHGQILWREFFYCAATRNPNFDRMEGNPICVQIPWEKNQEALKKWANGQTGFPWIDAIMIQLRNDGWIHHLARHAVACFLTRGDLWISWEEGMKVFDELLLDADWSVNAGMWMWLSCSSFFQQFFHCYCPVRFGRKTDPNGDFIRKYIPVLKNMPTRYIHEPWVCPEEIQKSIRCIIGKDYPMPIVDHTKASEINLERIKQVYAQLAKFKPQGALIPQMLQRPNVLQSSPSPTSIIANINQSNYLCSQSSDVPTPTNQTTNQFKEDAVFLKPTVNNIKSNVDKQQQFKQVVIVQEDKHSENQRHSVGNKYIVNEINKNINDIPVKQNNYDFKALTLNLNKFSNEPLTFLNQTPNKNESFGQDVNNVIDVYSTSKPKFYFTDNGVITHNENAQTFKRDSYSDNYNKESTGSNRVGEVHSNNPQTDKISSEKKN

B1: monarch CRYPTOCHROME 2 (CRY2) (protein, UniProt Q0QWP3 1-742)
chain: T1 sequence

What was measured:
[1] = target: T1, monarch CRYPTOCHROME 2 (CRY2) (Danaus plexippus (endogenous in DpN1 cells and monarch brain)); assay: co-IP; DpN1 cell extract (20 mM HEPES pH 7.9, 5% glycerol, 100 mM KCl, 0.1% Triton X100); rat anti-PER (R33), anti-TIM (R38) or anti-CRY2 (R41) on protein G sepharose, overnight at 4 °C; Western blot with guinea pig GP40, GP47, GP51; endogenous proteins
[2] = target: T1, monarch CRYPTOCHROME 2 (CRY2) (Danaus plexippus (endogenous in DpN1 cells and monarch brain)); assay: co-IP; monarch brain extract (brains from animals frozen at ZT 18, photoreceptor layers removed; same extraction buffer); rat anti-PER (R33), anti-TIM (R38) or anti-CRY2 (R41) on protein G sepharose, overnight at 4 °C; Western blot with guinea pig GP40, GP47, GP51; endogenous proteins
[3] = target: monarch TIMELESS (TIM) (Danaus plexippus (endogenous in DpN1 cells and monarch brain)); assay: co-IP; DpN1 cell extract (20 mM HEPES pH 7.9, 5% glycerol, 100 mM KCl, 0.1% Triton X100); rat anti-PER (R33), anti-TIM (R38) or anti-CRY2 (R41) on protein G sepharose, overnight at 4 °C; Western blot with guinea pig GP40, GP47, GP51; endogenous proteins
[4] = target: monarch PERIOD (PER) (Danaus plexippus (endogenous in DpN1 cells and monarch brain)) (UniProt Q7Z0C9); assay: as above
[5] = target: monarch TIMELESS (TIM) (Danaus plexippus (endogenous in DpN1 cells and monarch brain)); assay: co-IP; monarch brain extract (brains from animals frozen at ZT 18, photoreceptor layers removed; same extraction buffer); rat anti-PER (R33), anti-TIM (R38) or anti-CRY2 (R41) on protein G sepharose, overnight at 4 °C; Western blot with guinea pig GP40, GP47, GP51; endogenous proteins
[6] = target: monarch PERIOD (PER) (Danaus plexippus (endogenous in DpN1 cells and monarch brain)) (UniProt Q7Z0C9); assay: as above

Row | Molecule | binding [1] | binding [2] | binding [3] | binding [4] | binding [5] | binding [6]
1 | monarch TIMELESS (TIM) | binds | binds | – | – | – | –
2 | monarch PERIOD (PER) (from UniProt Q7Z0C9) | binds | binds | – | – | – | –
3 | B1 | – | – | binds | binds | binds | binds

Results are given in words; binding and its absence hold for the method and conditions named. In cells and extracts the contact can be indirect. A result given as binding can be weak or reduced; the word gives no strength.
